Reference: article PMC9482892
Results are given in words; binding and its absence hold for the method and conditions named. In cells and extracts the contact can be indirect. Some binding calls cover weakened binding; strength is not graded here.

Amino acid sequences for entries named in this document (tags omitted).
UniProt Q92793: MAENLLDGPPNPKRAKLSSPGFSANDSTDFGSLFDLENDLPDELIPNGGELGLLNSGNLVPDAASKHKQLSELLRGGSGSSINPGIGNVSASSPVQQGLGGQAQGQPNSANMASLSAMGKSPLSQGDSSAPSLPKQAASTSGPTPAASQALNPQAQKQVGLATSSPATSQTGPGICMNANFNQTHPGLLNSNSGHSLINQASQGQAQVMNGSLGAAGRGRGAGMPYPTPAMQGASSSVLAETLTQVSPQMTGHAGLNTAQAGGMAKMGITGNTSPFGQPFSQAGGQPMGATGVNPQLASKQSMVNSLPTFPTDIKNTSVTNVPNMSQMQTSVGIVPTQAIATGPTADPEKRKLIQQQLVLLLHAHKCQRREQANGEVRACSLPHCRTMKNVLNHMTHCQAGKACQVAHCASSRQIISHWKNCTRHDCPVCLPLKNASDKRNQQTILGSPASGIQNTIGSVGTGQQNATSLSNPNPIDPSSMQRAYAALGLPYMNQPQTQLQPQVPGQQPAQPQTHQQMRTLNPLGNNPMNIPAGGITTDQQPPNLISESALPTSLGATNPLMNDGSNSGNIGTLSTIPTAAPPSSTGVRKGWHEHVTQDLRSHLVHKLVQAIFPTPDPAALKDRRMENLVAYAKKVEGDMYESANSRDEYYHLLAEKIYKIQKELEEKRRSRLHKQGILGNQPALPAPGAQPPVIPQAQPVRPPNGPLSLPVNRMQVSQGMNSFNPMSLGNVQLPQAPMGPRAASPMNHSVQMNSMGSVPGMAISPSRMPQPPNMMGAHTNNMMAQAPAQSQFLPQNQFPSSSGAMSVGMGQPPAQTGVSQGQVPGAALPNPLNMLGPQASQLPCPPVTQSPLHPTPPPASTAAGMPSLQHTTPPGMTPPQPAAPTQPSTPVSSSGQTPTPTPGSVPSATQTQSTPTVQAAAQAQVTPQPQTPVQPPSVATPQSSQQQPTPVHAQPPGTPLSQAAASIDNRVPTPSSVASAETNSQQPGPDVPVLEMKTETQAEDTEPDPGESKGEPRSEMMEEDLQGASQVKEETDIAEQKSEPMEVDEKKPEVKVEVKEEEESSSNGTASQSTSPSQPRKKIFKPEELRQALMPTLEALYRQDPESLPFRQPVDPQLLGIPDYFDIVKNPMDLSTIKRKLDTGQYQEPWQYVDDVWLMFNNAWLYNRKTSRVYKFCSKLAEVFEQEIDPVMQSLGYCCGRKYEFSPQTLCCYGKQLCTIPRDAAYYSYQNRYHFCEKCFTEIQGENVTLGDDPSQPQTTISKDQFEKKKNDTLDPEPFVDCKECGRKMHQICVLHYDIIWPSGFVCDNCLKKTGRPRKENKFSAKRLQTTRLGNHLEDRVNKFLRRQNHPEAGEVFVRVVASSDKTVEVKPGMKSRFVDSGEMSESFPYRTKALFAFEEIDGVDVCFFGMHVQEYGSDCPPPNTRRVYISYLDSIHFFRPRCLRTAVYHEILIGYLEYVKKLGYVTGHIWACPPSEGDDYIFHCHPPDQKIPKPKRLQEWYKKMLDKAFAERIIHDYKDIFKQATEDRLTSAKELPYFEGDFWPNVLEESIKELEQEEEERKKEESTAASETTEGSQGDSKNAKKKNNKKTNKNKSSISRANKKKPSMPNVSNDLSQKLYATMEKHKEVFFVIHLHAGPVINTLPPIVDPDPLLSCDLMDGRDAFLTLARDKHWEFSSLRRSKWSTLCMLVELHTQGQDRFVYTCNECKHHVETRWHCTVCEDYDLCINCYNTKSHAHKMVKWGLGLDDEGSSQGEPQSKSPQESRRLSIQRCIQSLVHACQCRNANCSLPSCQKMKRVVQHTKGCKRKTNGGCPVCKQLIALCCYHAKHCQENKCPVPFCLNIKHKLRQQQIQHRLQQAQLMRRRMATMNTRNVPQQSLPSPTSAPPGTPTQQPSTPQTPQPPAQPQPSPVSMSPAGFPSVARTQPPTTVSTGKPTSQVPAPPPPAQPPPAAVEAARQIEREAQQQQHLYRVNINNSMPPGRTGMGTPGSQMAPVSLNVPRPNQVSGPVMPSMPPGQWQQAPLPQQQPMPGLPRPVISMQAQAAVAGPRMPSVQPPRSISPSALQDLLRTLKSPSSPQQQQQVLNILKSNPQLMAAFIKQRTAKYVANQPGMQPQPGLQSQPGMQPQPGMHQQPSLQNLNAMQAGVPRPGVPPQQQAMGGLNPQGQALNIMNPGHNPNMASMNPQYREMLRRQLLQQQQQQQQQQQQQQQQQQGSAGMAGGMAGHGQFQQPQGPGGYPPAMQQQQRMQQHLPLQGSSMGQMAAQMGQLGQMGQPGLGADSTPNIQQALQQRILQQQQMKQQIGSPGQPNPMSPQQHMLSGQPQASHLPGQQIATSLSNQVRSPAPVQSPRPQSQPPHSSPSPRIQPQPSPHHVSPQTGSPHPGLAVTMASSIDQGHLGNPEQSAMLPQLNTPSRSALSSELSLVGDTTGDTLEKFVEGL

Target: T1, CCCTC-binding factor (CTCF) (UniProt P49711)
T1 sequence: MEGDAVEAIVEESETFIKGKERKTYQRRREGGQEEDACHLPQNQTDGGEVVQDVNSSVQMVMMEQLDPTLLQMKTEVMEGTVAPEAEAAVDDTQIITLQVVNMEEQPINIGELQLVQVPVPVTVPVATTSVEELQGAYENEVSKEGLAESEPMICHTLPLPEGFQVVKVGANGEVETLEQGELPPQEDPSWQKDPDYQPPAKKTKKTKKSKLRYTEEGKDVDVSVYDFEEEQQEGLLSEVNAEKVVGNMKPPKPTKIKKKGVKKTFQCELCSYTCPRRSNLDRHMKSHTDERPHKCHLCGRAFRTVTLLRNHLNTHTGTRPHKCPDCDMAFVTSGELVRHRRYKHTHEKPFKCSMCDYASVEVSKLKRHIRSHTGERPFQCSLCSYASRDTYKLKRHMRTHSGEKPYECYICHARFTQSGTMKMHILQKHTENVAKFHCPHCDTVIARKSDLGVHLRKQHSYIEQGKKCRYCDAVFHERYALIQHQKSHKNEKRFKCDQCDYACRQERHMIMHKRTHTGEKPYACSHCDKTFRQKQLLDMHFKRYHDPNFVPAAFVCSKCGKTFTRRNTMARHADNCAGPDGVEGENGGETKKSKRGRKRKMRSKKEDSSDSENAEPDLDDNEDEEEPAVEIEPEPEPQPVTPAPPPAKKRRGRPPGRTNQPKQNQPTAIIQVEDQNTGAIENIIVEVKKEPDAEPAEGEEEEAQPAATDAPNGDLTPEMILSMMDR
Test: co-IP; endogenous proteins; lysis buffer 20 mM Tris-HCl pH 7.5, 1% Triton X-100, 150 mM NaCl, 10% glycerol; antibody on Protein A/G beads, 4 °C; blotted with anti-CTCF and anti-CBP; cell line not stated

binding: binds
Substance: CREB-binding protein (CBP) (from UniProt Q92793 1-2442) (enzyme)
